Data on 2 molecules can be found in article PMC11077971 (mBio, 2024).

In test [1] the target is BC1E408AΔBCCP^β-hairpin (Chloroflexus aurantiacus J-10-fl) (UniProt A9W9X0). Description: AUC + SEC; sedimentation velocity, 42,000 rpm, 20°C, initial A280 ~0.7, Sedfit; gel filtration on a Superdex 200 column; both purified.
Test [2] has as its target BC1 with the E408A mutation (Chloroflexus aurantiacus J-10-fl) (UniProt A9W9X0). Description: SEC; gel filtration of BC1 dimer interface mutants (Fig. S6D); both purified.

Results are given in words; binding and its absence hold for the method and conditions named. Some binding calls cover weakened binding; strength is not graded here.

B1: BC1E408AΔBCCP^β-hairpin (enzyme, UniProt A9W9X0)
chain: MFRTILVANRGEIALRVMRACRELGLRCVAVYSEADRDAPHVAYADDAFLIGPPSPAESYLNIDAIIRAAKATGAEAIHPGYGFLAENASFVRAVTAAGLIFIGPPAEAMERMGGKTAARREATAAGVPVVPGVLEPVTDAAEVRRLGKEFGYPIAIKAVGGGGGRGLRVVRSPEEVDEAFAAARREAEVAFKNGELYVEKYLDDPRHIEIQVLADRYGNAVALGERDCSVQRRHQKLIEECPSPALTPELRAEMGAAAVRLAKAVGYVSAGTLEFLFQDGRYYFLEMNTRIQVEHTVTEMVYGIDLVAAQIRIAQGEKLWFKQEDVVPRGHAIECRINAEDPLHNFRPALGTIGEYHEPVGFGVRVDSGVRAYYTVPSHYDSLLAKLITWGSDRQEAIARMRRALAAYRIEGVTTIIPFHQAALEHPVFTAGAATVNFIPRHPELFSRAAELTPPTAASAGAEPAPEPRRFGDGMNATPVASPSRSAPARRAAPKKTTLAAPVDAVISPIQGRVVAVRVAHGQQVEAGQVLFIVEAMKMENEITAPHSGTIAEVRVEVGTTVEAGAMLATYQNTANNTNGK
As for B1, in test [1], the binding result is on record as “no binding”.

B2: BC1 with the E408A mutation (enzyme, UniProt A9W9X0 1-596)
chain: MFRTILVANRGEIALRVMRACRELGLRCVAVYSEADRDAPHVAYADDAFLIGPPSPAESYLNIDAIIRAAKATGAEAIHPGYGFLAENASFVRAVTAAGLIFIGPPAEAMERMGGKTAARREATAAGVPVVPGVLEPVTDAAEVRRLGKEFGYPIAIKAVGGGGGRGLRVVRSPEEVDEAFAAARREAEVAFKNGELYVEKYLDDPRHIEIQVLADRYGNAVALGERDCSVQRRHQKLIEECPSPALTPELRAEMGAAAVRLAKAVGYVSAGTLEFLFQDGRYYFLEMNTRIQVEHTVTEMVYGIDLVAAQIRIAQGEKLWFKQEDVVPRGHAIECRINAEDPLHNFRPALGTIGEYHEPVGFGVRVDSGVRAYYTVPSHYDSLLAKLITWGSDRQEAIARMRRALAAYRIEGVTTIIPFHQAALEHPVFTAGAATVNFIPRHPELFSRAAELTPPTAASAGAEPAPEPRRFTIEVNGRRFGVAVFGDGMNATPVASPSRSAPARRAAPKKTTLAAPVDAVISPIQGRVVAVRVAHGQQVEAGQVLFIVEAMKMENEITAPHSGTIAEVRVEVGTTVEAGAMLATYQNTANNTNGK
Regarding B2, the binding result in test [2] is listed as “binds”.
